The text below walks through data of patent US20230348376A1 (TEIJIN PHARMA LIMITED, priority 2020, published 2023).

One series concerns rat oligodendrocyte progenitor cells. Description: Promotive activity of rat oligodendrocyte progenitor cell differentiation-2 (immunostaining of MBP). The series is classed as cell-based. The following applies: Test 1; vitamin D derivative 2 μM, T3 30 nM. On the procedure: The promotive activity of oligodendrocyte progenitor cell (OPC) differentiation of the vitamin D derivatives was evaluated by immunostaining of MBP.
Subsequently, oligodendrocyte progenitor cell separation medium was added to the flask, and the mixture was similarly shaken for about 22 hours (37° C., 200 rpm), and the supernatant was collected to prepare oligodendrocyte progenitor cells.
For `C[C@H](CN1CC[C@@H](C(C)(F)F)C1)[C@H]1CC[C@H]2/C(=C/C=C3C[C@@H](O)C[C@H](O)C3)CCC[C@]12C` [Compound B034, (1R,3R)-5-(2-((1R,3aS,7aR,E)-1-((S)-1-((R)-3-(1,1-difluoroethyl)pyrrolidin-1-yl)propan-2-yl)-7a-methyloctahydro-4H-inden-4-ylidene)ethylidene)cyclohexane-1,3-diol], the “Significant difference (t-test vs DMSO group)” value (“Significant difference” below) is on record as “**** (<0.0001)”.
For `C=C1/C(=C\C=C2/CCC[C@]3(C)[C@@H]([C@H](C)CN4CC[C@H](CC(F)F)C4)CC[C@@H]23)C[C@@H](O)C[C@@H]1O` [Compound B036], the “Significant difference” value was “**** (<0.0001)”.
In the case of `C=C1/C(=C\C=C2/CCC[C@]3(C)[C@@H]([C@H](C)CN4CC[C@@H](CC(F)F)C4)CC[C@@H]23)C[C@@H](O)C[C@@H]1O` [Compound B037, (1R,3S,Z)-5-(2-((1R,3aS,7aR,E)-1-((S)-1-((S)-3-(2,2-difluoroethyl)pyrrolidin-1-yl)propan-2-yl)-7a-methyloctahydro-4H-inden-4-ylidene)ethylidene)-4-methylenecyclohexane-1,3-diol], the “Significant difference” value is “**** (<0.0001)”.
`C=C1[C@H](O)CC(=C/C=C2\CCC[C@]3(C)[C@@H]([C@H](C)CN4CC[C@H](CC(F)F)C4)CC[C@@H]23)C[C@H]1O` [Compound B040, (1R,3R)-5-(2-((1R,3aS,7aR,E)-1-((S)-1-((R)-3-(2,2-difluoroethyl)pyrrolidin-1-yl)propan-2-yl)-7a-methyloctahydro-4H-inden-4-ylidene)ethylidene)-2-methylenecyclohexane-1,3-diol]: the “Significant difference” value is reported as “**** (<0.0001)”.
For `C=C1[C@H](O)CC(=C/C=C2\CCC[C@]3(C)[C@@H]([C@H](C)CN4CC[C@@H](CC(F)F)C4)CC[C@@H]23)C[C@H]1O` [Compound B041, (1R,3R)-5-(2-((1R,3aS,7aR,E)-1-((S)-1-((S)-3-(2,2-difluoroethyl)pyrrolidin-1-yl)propan-2-yl)-7a-methyloctahydro-4H-inden-4-ylidene)ethylidene)-2-methylenecyclohexane-1,3-diol], the “Significant difference” value is “**** (<0.0001)”.
`C[C@H](CN1CC[C@H](CC(F)F)C1)[C@H]1CC[C@H]2/C(=C/C=C3C[C@@H](O)C[C@H](O)C3)CCC[C@]12C` [Compound B042, (1R,3R)-5-(2-((1R,3aS,7aR,E)-1-((S)-1-((R)-3-(2,2-difluoroethyl)pyrrolidin-1-yl)propan-2-yl)-7a-methyloctahydro-4H-inden-4-ylidene)ethylidene)cyclohexane-1,3-diol]: the “Significant difference” value is listed as “**** (<0.0001)”.

The series is the same for the next values; noted with them: Test 2; vitamin D derivative 2 μM, T3 30 nM.
Turning to `C[C@H](CN1CC[C@H](CC(F)F)C1)[C@H]1CC[C@H]2/C(=C/C=C3C[C@@H](O)C[C@H](O)C3)CCC[C@]12C` [Compound B042, (1R,3R)-5-(2-((1R,3aS,7aR,E)-1-((S)-1-((R)-3-(2,2-difluoroethyl)pyrrolidin-1-yl)propan-2-yl)-7a-methyloctahydro-4H-inden-4-ylidene)ethylidene)cyclohexane-1,3-diol], the “Significant difference” value is “**** (<0.0001)”.
Same read-out and setting: with `C[C@H](CN1CC[C@H](OC(F)F)C1)[C@H]1CC[C@H]2/C(=C/C=C3C[C@@H](O)C[C@H](O)C3)CCC[C@]12C` [Compound B051, (1R,3R)-5-(2-((1R,3aS,7aR,E)-1-((S)-1-((S)-3-(difluoromethoxy)pyrrolidin-1-yl)propan-2-yl)-7a-methyloctahydro-4H-inden-4-ylidene)ethylidene)cyclohexane-1,3-diol] the entry was “**** (<0.0001)”; with `C=C1[C@H](O)CC(=C/C=C2\CCC[C@]3(C)[C@@H]([C@H](C)CN4CC[C@H](OCC(F)F)C4)CC[C@@H]23)C[C@H]1O` [Compound B055, (1R,3R)-5-(2-((1R,3aS,7aR,E)-1-((S)-1-((S)-3-(2,2-difluoroethoxy)pyrrolidin-1-yl)propan-2-yl)-7a-methyloctahydro-4H-inden-4-ylidene)ethylidene)-2-methylenecyclohexane-1,3-diol], “**** (<0.0001)”.
As for `C[C@H](CN1CC[C@H](OCC(F)F)C1)[C@H]1CC[C@H]2/C(=C/C=C3C[C@@H](O)C[C@H](O)C3)CCC[C@]12C` [Compound B057, (1R,3R)-5-(2-((1R,3aS,7aR,E)-1-((S)-1-((S)-3-(2,2-difluoroethoxy)pyrrolidin-1-yl)propan-2-yl)-7a-methyloctahydro-4H-inden-4-ylidene)ethylidene)cyclohexane-1,3-diol], the “Significant difference” value is “**** (<0.0001)”.
On to `C[C@H](CN1CC[C@@H](OCC(F)F)C1)[C@H]1CC[C@H]2/C(=C/C=C3C[C@@H](O)C[C@H](O)C3)CCC[C@]12C` [Compound B058, (1R,3R)-5-(2-((1R,3aS,7aR,E)-1-((S)-1-((R)-3-(2,2-difluoroethoxy)pyrrolidin-1-yl)propan-2-yl)-7a-methyloctahydro-4H-inden-4-ylidene)ethylidene)cyclohexane-1,3-diol], for which the “Significant difference” value is reported as “**** (<0.0001)”.
`C[C@H](CN1CC[C@@H](CCC(F)F)C1)[C@H]1CC[C@H]2/C(=C/C=C3C[C@@H](O)C[C@H](O)C3)CCC[C@]12C` [Compound B064, (1R,3R)-5-(2-((1R,3aS,7aR,E)-1-((S)-1-((R)-3-(3,3-difluoropropyl)pyrrolidin-1-yl)propan-2-yl)-7a-methyloctahydro-4H-inden-4-ylidene)ethylidene)cyclohexane-1,3-diol]: the “Significant difference” value is given as “**** (<0.0001)”.
With `C=C1[C@H](O)CC(=C/C=C2\CCC[C@]3(C)[C@@H]([C@H](C)CN4CCC(C(C)(F)F)CC4)CC[C@@H]23)C[C@H]1O` [Compound C055, (1R,3R)-5-(2-((1R,3aS,7aR,E)-1-((S)-1-(4-(1,1-difluoroethyl)piperidin-1-yl)propan-2-yl)-7a-methyloctahydro-4H-inden-4-ylidene)ethylidene)-2-methylenecyclohexane-1,3-diol], the “Significant difference” value was “**** (<0.0001)”.
As for `C[C@H](CN1CCOC2(CC2)C1)[C@H]1CC[C@H]2/C(=C/C=C3C[C@@H](O)C[C@H](O)C3)CCC[C@]12C` [Compound D019, (1R,3R)-5-(2-((1R,3aS,7aR,E)-1-((S)-1-(4-oxa-7-azaspiro[2.5]octan-7-yl)propan-2-yl)-7a-methyloctahydro-4H-inden-4-ylidene)ethylidene)cyclohexane-1,3-diol], the “Significant difference” value is “**** (<0.0001)”.
As to `C[C@H](CCN1CCOCC1)[C@H]1CC[C@H]2/C(=C/C=C3C[C@@H](O)C[C@H](O)C3)CCC[C@]12C` [Compound D023, (1R,3R)-5-(2-((1R,3aS,7aR,E)-7a-methyl-1-((R)-4-morpholinobutan-2-yl)octahydro-4H-inden-4-ylidene)ethylidene)cyclohexane-1,3-diol], the “Significant difference” value is listed as “**** (<0.0001)”.
On to `C=C1[C@H](O)CC(=C/C=C2\CCC[C@]3(C)[C@@H]([C@H](C)CCN4CCOCC4)CC[C@@H]23)C[C@H]1O` [Compound D024, (1R,3R)-5-(2-((1R,3aS,7aR,E)-7a-methyl-1-((R)-4-morpholinobutan-2-yl)octahydro-4H-inden-4-ylidene)ethylidene)-2-methylenecyclohexane-1,3-diol], for which the “Significant difference” value was “**** (<0.0001)”.

Still in this series, the particulars now being: Test 7; vitamin D derivative 2 μM, T3 30 nM.
`C=C1/C(=C\C=C2/CCC[C@]3(C)[C@@H]([C@H](C)CN4CCCC[C@@H]4C)CC[C@@H]23)C[C@@H](O)C[C@@H]1O` [Compound F001, (1R,3S,Z)-5-(2-((1R,3aS,7aR,E)-7a-methyl-1-((S)-1-((S)-2-methylpiperidin-1-yl)propan-2-yl)octahydro-4H-inden-4-ylidene)ethylidene)-4-methylenecyclohexane-1,3-diol]: the “Significant difference” value is reported as “** (<0.01)”.
